Laboratory results as given in patent US11066709B2, “Methods for diagnosing and treating cancer by means of the expression status and mutational status of NRF2 and downstream target genes of said gene” (Genentech, Inc., priority 2016, dated 2021).
At least one structure is not confirmed: it was looked up by name or label, or the drawing left a doubt.

What was measured:
[1] = system: reactive oxygen species (ROS); assay: ROS levels measured by H2DCF; assay type: cell-based
From the text: FIG. 49 is bar graph showing reactive oxygen species (ROS) levels under indicated conditions as measured using 2′,7′-dichlorodihydrofluorescein diacetate (H2DCF). Error bars represent standard deviation from triplicate wells.
FIG. 53 is a histogram showing increasing ROS levels in response to shNRF2 and/or erastin, as measured by H2DCF.

[2] = system: KEAP1 mutant cell line A549; assay: Viability of A549 cells over a dose response of erastin (CTG ATP measurement); assay type: cell-based

CCOc1ccccc1-n1c(C(C)N2CCN(C(=O)COc3ccc(Cl)cc3)CC2)nc2ccccc2c1=O (stereo not drawn) [erastin]
oxidative stress (ROS levels) [1]: increased oxidative stress
viability ([2]; combination of erastin and NRF2 knockdown, A549): dramatic decrease in viability
viability ([2]; erastin alone, KEAP1 mutant cell line A549, about four days): not sufficient to decrease the viability
